Data as given in PubChem BioAssay AID2685 (National Center for Advancing Translational Sciences (NCATS), 2010).
Out of some 320,000 compounds screened, about 2,100 (0.66%) were called active. The inconclusive results got no clear call from the source; some entries with a clear call stand among them for comparison. The call rests on the fitted dose curve; in most records, active means well fitted inhibition curve with a large enough effect in the signal ratio, with a control signal flat (not every such curve was filed as active); inconclusive means small, poorly fitted or top-dose-only effect, or effect the other way, or a change in a side signal; inactive means flat fitted curve, though single readings scatter; the % refers to the signal ratio. Potencies beside an inconclusive call are fits to weak or partial responses and may not hold up.
On the % scale 0 is the no-effect control and ±100 the full control effect; potency means the concentration at half of the fitted maximal effect.

Assay: qHTS Assay for Lipid Storage Modulators in Drosophila S3 Cells
Details: BODIPY lipid droplet fluorescence, 18-24 h, cells fed with added oleic acid; lipid storage change, negative = inhibition: at 46.1 µM (top of the series) unless noted
Outline: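 Laser-scanning cytometry quantifies lipid droplet accumulation (500–530 nm total intensity; droplet/cell object ratio) in oleic acid-fed (400 uM added) Drosophila S3 cells treated with a concentration series. 20 uM Triacsin C defined 100% inhibition.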
With S=c1nc(-c2cc(Cl)ccc2Cl)[nH][nH]1 the lipid storage change, negative = inhibition was inconclusive: -6.43%.
In the case of CCOc1ccc(-c2n[nH]c(C(=O)NN)c2C)cc1, the Potency is reported as inconclusive: 1.64 µM [falling, partial curve, poor fit].
With Cc1ccc[n+](/C(=C\C(=C=[N-])C#N)C(=O)c2ccc(Cl)cc2)c1 the “lipid storage change, negative = inhibition” value was inactive: 6.04%.
For CC(=O)c1cccc(NCC(=O)N2CCN(S(=O)(=O)c3ccccc3)CC2)c1, the lipid storage change, negative = inhibition was inconclusive: 1.11%.
With O=C(Nc1ccc(NC(=O)c2cccnc2)cc1)c1ccccc1 the Potency was inconclusive: 29.1 µM [falling, single point].
For Cc1cn(Cc2ccccc2)c(=O)[nH]c1=O, the “lipid storage change, negative = inhibition” value was inactive: -2.22%.
In the case of CCn1c(=O)c(C(=O)NC(C)C)c(O)c2ccccc21, the Potency is reported as inconclusive: 11.6 µM [activator, partial curve].
In the case of CCN(CC(=O)Nc1c(F)cccc1F)C(=O)CCC(=O)c1ccc(F)cc1, the lipid storage change, negative = inhibition is reported as inconclusive: 8.15%.
With O=C(CSc1nnc(-c2cccs2)o1)c1cccs1 the lipid storage change, negative = inhibition was inconclusive: 1.5%.
In the case of NC(=O)C1CCN(C(=O)COc2ccc3ccc(=O)oc3c2)CC1, the lipid storage change, negative = inhibition is reported as inconclusive: -25%.
With CCn1c(=O)n(CC)c2cc(NC(=O)c3ccccc3Cl)ccc21 the lipid storage change, negative = inhibition was inconclusive: -189%.
For O=C(Nc1ccccc1[N+](=O)[O-])C1C(c2ccccc2)=C1c1ccccc1, the lipid storage change, negative = inhibition was inconclusive: -22%.
For CC(=O)c1cn(CC(=O)Nc2ccccc2F)c2ccccc12, the lipid storage change, negative = inhibition was inconclusive: -32.1%.
In the case of CCCCOC(=O)c1ccc(NC(=O)Nc2ccc(OC)c(OC)c2)cc1, the Potency is reported as inconclusive: 1.64 µM [rising, partial curve].
For Cc1nn(C)cc1C(=O)Nc1cc(Oc2ccc(Cl)cc2)cc([N+](=O)[O-])c1, the lipid storage change, negative = inhibition was inconclusive: 181%.
In the case of CCOc1cc(/C=C(\C#N)C(=O)Nc2ccccc2C(=O)O)ccc1OC(=O)c1ccc(C)cc1, the Potency is reported as inconclusive: 29.1 µM [activator, single point].
With COc1ccc(/C=N/NC(=O)CSCc2ccc([N+](=O)[O-])cc2)cc1OC the lipid storage change, negative = inhibition was inconclusive: 3.52%.
For CC1(OC(=O)C2CCCC2)C(=O)C=C2C=C(c3ccsc3)N(CCc3c[nH]c4ccccc34)C=C2C1=O (stereo not drawn), the lipid storage change, negative = inhibition was inconclusive: -0.772%.
With COc1cc(NC(=O)COC(=O)c2nc3nc(C)cc(C)n3n2)cc(OC)c1 the lipid storage change, negative = inhibition was inconclusive: -15.7%.
For CC(OC(=O)c1ccc2ncsc2c1)C(=O)Nc1cccc(Cl)c1 (stereo not drawn), the lipid storage change, negative = inhibition was inconclusive: 5.09%.
With O=c1[nH][nH]cc1C=NCc1cccnc1 the lipid storage change, negative = inhibition was inconclusive: -5.74%.
With Cn1ccc(C(=O)OCC(=O)Nc2ccccc2Cl)n1 the lipid storage change, negative = inhibition was inconclusive: 0.11%.
In the case of CCOc1ccc(/C=N/NC(=O)C(O)c2ccccc2)c(O)c1 (stereo not drawn), the lipid storage change, negative = inhibition is reported as inconclusive: 14.8%.
In the case of COC(=O)c1c(NC(=O)CN2CCN(c3ccccc3)CC2)c2c(C)cccc2n1C, the lipid storage change, negative = inhibition is reported as inconclusive: -2.67%.
In the case of Cc1cc(C)nc(/N=C(\N)Nc2ccc(SC(F)F)cc2)n1, the Potency is reported as inconclusive: 23.1 µM [falling, single point].
For O=C(NCc1ccc(F)cc1)C1CCCN(C(=O)Nc2ccc(F)cc2)C1 (stereo not drawn), the Potency was inconclusive: 5.8 µM [activator, single point].
For Cc1nnc(SC2CC(=O)N(c3ccccc3)C2=O)s1 (stereo not drawn), the Potency was inconclusive: 29.1 µM [cytotoxic, single point].
In the case of Cc1cc(C)c2[nH]c(O)c(N=NC(=O)c3cc4c(s3)CCCC4)c2c1, the lipid storage change, negative = inhibition is reported as inconclusive: 12.1%.
With COc1ccc2cc3cc(C(=O)NCc4ccco4)oc3nc2c1 the Potency was inconclusive: 0.58 µM [rising, single point].
In the case of CC(C)(C)NC(=O)c1cc(-c2ccc3c(c2)OCO3)nc2ccccc12, the lipid storage change, negative = inhibition is reported as inconclusive: -9.42%.
For CCc1ccc(N(CC(=O)NCc2ccc3c(c2)OCO3)C(=O)c2csnn2)cc1, the Potency was inconclusive: 6.51 µM [activator, single point].
In the case of C/C(CC(=O)Nc1ccc(Cl)cc1)=N\NC(=O)C(=O)N1CCCCC1, the lipid storage change, negative = inhibition is reported as inconclusive: -3.31%.
With CCc1ccc(NC(=S)Nn2cnnc2)cc1 the lipid storage change, negative = inhibition was inconclusive: -34.5%.
With CCCCOC(C)n1cc(F)c(=O)[nH]c1=O (stereo not drawn) the lipid storage change, negative = inhibition was inconclusive: 5.53%.
With COc1ccc(-c2cc(C(=O)N3CCCCC3)c3ccccc3n2)cc1 the lipid storage change, negative = inhibition was inconclusive: -40%.
For COc1ccc(C(=O)C2CCN(CC(=O)Nc3ccccc3F)CC2)cc1, the Potency was inconclusive: 0.116 µM [activator, single point].
In the case of Cn1c(=O)c2sccc2n(Cc2ccc(Br)cc2)c1=O, the lipid storage change, negative = inhibition is reported as inconclusive: 19.4%.
In the case of N#Cc1cccn1-c1nccc(-c2cccs2)n1, the lipid storage change, negative = inhibition is reported as inconclusive: -29.5%.
With O=C(CSc1nc2ccccc2c(=O)n1CC1CCCO1)NCc1ccc2c(c1)OCO2 (stereo not drawn) the lipid storage change, negative = inhibition was inconclusive: 25.7%.
For CNC(=O)c1cc2c(-c3ccccc3)nn(C)c2s1, the lipid storage change, negative = inhibition was inconclusive: -28%.
In the case of COc1cccc(C2CC(c3ccc(Cl)cc3)n3nc(N)nc3N2)c1 (stereo not drawn), the lipid storage change, negative = inhibition is reported as inconclusive: -0.213%.
In the case of CCC(=O)N1CCN=C1SCc1cc(C)ccc1C, the Potency is reported as inconclusive: 4.11 µM [activator, single point].
With NC(=O)N1N=C2/C(=C/c3ccccc3)CCCC2C1c1ccccc1 (stereo not drawn) the lipid storage change, negative = inhibition was inconclusive: 1.15%.
For OC1CNCc2cc3c(cc21)OCCO3 (stereo not drawn), the Potency was inconclusive: 0.116 µM [falling, full curve, poor fit].
For COc1ccc(O)c(/C=N/N=C2/C(=O)Nc3ccccc32)c1, the lipid storage change, negative = inhibition was inconclusive: 18.6%.
With CCC(C(=O)N1CCN(Cc2ccc3c(c2)OCO3)CC1)n1c(=O)[nH]c2ccccc2c1=O (stereo not drawn) the Potency was inconclusive: 23.1 µM [falling, single point].
With CCOc1ccccc1Nc1nnc(SCC(=O)NC(Cc2c[nH]c3ccccc23)C(=O)O)s1 (stereo not drawn) the lipid storage change, negative = inhibition was inconclusive: -4.87%.
With Cc1ccc(Cl)cc1NS(=O)(=O)c1ccc(-n2cccn2)cc1 the Potency was inconclusive: 5.8 µM [activator, full curve, poor fit].
With COc1ccc(N2CCN(C(=O)c3[nH]c4ccc(OC)cc4c3C)CC2)cc1 the lipid storage change, negative = inhibition was inconclusive: 43.7%.
In the case of CO/N=C/NC(=O)N1OC[C@@H]2COc3ccc4ccccc4c3[C@@H]21, the Potency is reported as inconclusive: 0.411 µM [activator, full curve].
With O=C(C1Cc2ccccc2CN1S(=O)(=O)c1cccs1)N1CCCCC1 (stereo not drawn) the lipid storage change, negative = inhibition was inconclusive: -7.45%.
With Cc1cccc(C)c1Nc1nnc(SCC(=O)Nc2ncc(C(F)(F)F)cc2Cl)s1 the lipid storage change, negative = inhibition was inconclusive: 24.4%.
For COc1ccc(C2=CC(=O)CC(C)(C)C2)cc1, the Potency was inconclusive: 0.517 µM [falling, single point].
For Fc1ccc(CSc2nncn2NC/C=C/c2ccccc2)cc1, the Potency was inconclusive: 2.06 µM [rising, partial curve].
With CN1C(=O)/C(=C/c2ccccc2F)Sc2ccc(C(=O)N3CCCC3)cc21 the Potency was inconclusive: 3.66 µM [falling, full curve].
In the case of CC(=O)NCc1cc(-c2nn(C)c(=O)c3ccccc23)ccc1C, the lipid storage change, negative = inhibition is reported as inconclusive: 115%.
In the case of COC(=O)c1c(NC(=O)C2COc3ccccc3O2)sc2c1CCN(C(C)=O)C2 (stereo not drawn), the Potency is reported as inconclusive: 0.517 µM [activator, full curve].
With Cc1cc(=O)[nH]c2c(C)c(Cl)ccc12 the lipid storage change, negative = inhibition was inconclusive: 10.2% [at 9.22 µM].
For Cn1ncc(Cl)c1C(=O)NC(=S)Nc1sc2c(c1C#N)CCCCC2, the lipid storage change, negative = inhibition was inconclusive: 3.77%.
For O=C(Cn1cnc2cc([N+](=O)[O-])ccc2c1=O)Nc1ccc(N2CCOCC2)cc1, the lipid storage change, negative = inhibition was inconclusive: 1.49%.
With CCOCCn1c(C(C)C)nc2ccccc21 the Potency was inconclusive: 6.51 µM [falling, single point].
With O=C(COC(=O)c1ccc(F)cc1)NCc1ccc(F)cc1 the lipid storage change, negative = inhibition was inconclusive: -7.26%.
For COc1cccc(CNC(=O)COC(=O)CCS(=O)(=O)c2ccc(C)cc2)c1, the lipid storage change, negative = inhibition was inconclusive: 22.5%.
With CCOc1ccc(NC(=O)CSc2n[nH]c(=O)n2-c2ccccc2)cc1 the lipid storage change, negative = inhibition was inconclusive: 114%.
In the case of C=CCNC(=O)c1ccc(Sc2ccccc2)c([N+](=O)[O-])c1, the lipid storage change, negative = inhibition is reported as inconclusive: 23.9%.
For CCCNC(=O)C(Cc1ccc(Cl)cc1)NC(=O)c1ccc(-c2ccccc2)cc1 (stereo not drawn), the lipid storage change, negative = inhibition was inconclusive: 3.36%.
For CCc1cccc2c(C(=S)N3CCOCC3)c[nH]c12, the lipid storage change, negative = inhibition was inconclusive: -0.041%.
For Cc1nnc(NC(=O)c2sc3nc(-c4cccs4)cc(C(F)(F)F)c3c2N)s1, the Potency was active: 9.2 µM.
For CC(C)C[C@H](NC(=O)N1CCn2c1nc1ccccc12)C(=O)NCCc1ccccc1, the Potency was inconclusive: 6.51 µM [falling, full curve, poor fit].
With Cn1c(=O)c2c(SCC(=O)NCC3CCCO3)nc(-c3ccccc3Cl)nc2n(C)c1=O (stereo not drawn) the Potency was inconclusive: 6.31 µM [cytotoxic, full curve].
For CC(C)CN(CC(C)C)C(=O)CCCC(=O)N(CC(C)C)CC(C)C, the lipid storage change, negative = inhibition was inconclusive: -8.28%.
For CCOC(=O)C1(CCCc2ccccc2)CCN(S(=O)(=O)N(C)C)CC1, the lipid storage change, negative = inhibition was inconclusive: -62.8%.
In the case of COc1ccc(/C(C)=N/NC(=O)CNC(=O)/C=C\c2ccco2)cc1, the “lipid storage change, negative = inhibition” value is reported as inactive: 6.78%.
In the case of CCC(NC(=O)C1C2C=CC(C2)C1C(=O)O)c1ccc(C)cc1 (stereo not drawn), the Potency is reported as inconclusive: 6.51 µM [activator, single point].
In the case of CCc1ccccc1NC(=O)c1cc(C)no1, the lipid storage change, negative = inhibition is reported as inconclusive: -105%.
With COC(=O)c1nc2ccccn2c1F the lipid storage change, negative = inhibition was inconclusive: -20.9%.
In the case of COc1ccc(OC)c(NC(=O)COC(=O)Cn2nnc(-c3ccccc3)n2)c1, the Potency is reported as inconclusive: 11.6 µM [falling, partial curve, poor fit].
For Cc1ccccc1C(OCCN(C(C)C)C(C)C)c1ccccc1 (stereo not drawn), the lipid storage change, negative = inhibition was inconclusive: -8.34%.
